From PubChem BioAssay record AID624032 (NCATS, 2012).

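Reporter-gene test of PMP22 expression in a rat Schwann cell line, read by firefly luciferase light output 24 hours after treatment. Seventeen-point concentration series from about 0.00016 to 58 µM. Potency is the AC50 from a fitted inhibition curve, the concentration giving half the maximal fitted effect; a lower value means a more potent inhibitor. Calls follow the activity score from curve class and fit: scores 40–100 are active, 1–39 inconclusive, 0 inactive; all rows here are inconclusive.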

Values are in µM. All entries here are filed as inconclusive. Only part of the assay is shown, chiefly results filed as inconclusive. A potency from a partial, single-point or poor curve is only a rough figure. Activity scores are not listed here.

compound: O=C1C(=O)c2ncccc2-c2cccnc21
Potency (µM): 10.18
remark: inhibitor, full curve, poor fit

compound: C[C@]12CCC(=O)C(O)=C1CC[C@@H]1[C@H]3CCC(=O)[C@@]3(C)CC[C@@H]12
Potency (µM): 36.13
remark: inhibitor, single point

compound: CC(=O)Oc1cccc(C(=O)O)c1OC(C)=O
Potency (µM): 40.53
remark: inhibitor, single point

compound: CCOc1nc2cccc(C(=O)O)c2n1Cc1ccc(-c2ccccc2-c2nn[nH]n2)cc1
Potency (µM): 36.13
remark: inhibitor, single point

compound: Nc1c2c(nc3ccccc13)CCCC2
Potency (µM): 18.11
remark: inhibitor, partial curve

compound: Cc1c(C(=O)O)c(O)cc2c1C(=O)c1c(O)c([C@H]3O[C@H](CO)[C@@H](O)[C@H](O)[C@H]3O)c(O)c(O)c1C2=O
Potency (µM): 22.79
remark: inhibitor, partial curve

compound: CC(=O)N/N=C/c1ccc([N+](=O)[O-])o1
Potency (µM): 0.8087
remark: inhibitor, full curve, poor fit

compound: CCCCCCC[N+](CC)(CC)CCCCc1ccc(Cl)cc1
Potency (µM): 6.911
remark: inhibitor, single point

compound: CC(=O)Oc1ccc(C2(c3ccc(OC(C)=O)cc3)C(=O)Nc3ccccc32)cc1
Potency (µM): 28.7
remark: inhibitor, single point

compound: CO[C@]12C(COC(N)=O)C3=C(C(=O)C(C)=C(N)C3=O)N1CC1NC12 (stereo partly shown)
Potency (µM): 10.18
remark: inhibitor, partial curve, poor fit

compound: Oc1ccc2c3c1O[C@H]1[C@@H](O)CC[C@@]4(O)C(C2)N(CC2CCC2)CCC314 (stereo partly shown)
Potency (µM): 40.53
remark: inhibitor, single point

compound: Cc1cc2nc3c(=O)[nH]c(=O)nc-3n(CC(O)C(O)C(O)CO)c2cc1C (stereo not shown)
Potency (µM): 10.18
remark: inhibitor, partial curve

compound: CN(C)CCCN1c2ccccc2Sc2ccc(C(F)(F)F)cc21
Potency (µM): 40.53
remark: inhibitor, single point

compound: COc1ccc2cc3[n+](cc2c1OC)CCc1cc2c(cc1-3)OCO2
Potency (µM): 4.548
remark: inhibitor, full curve, poor fit

compound: C=C1CC2C3C=C(C)C4=CC(=O)CCC4(C)C3CCC2(C)[C@@]1(OC(C)=O)C(C)=O (stereo partly shown)
Potency (µM): 36.13
remark: inhibitor, single point

compound: CC(CCc1ccccc1)NC(C)C(O)c1ccc(O)cc1 (stereo not shown)
Potency (µM): 4.053
remark: inhibitor, partial curve, poor fit

compound: CCOC(=O)c1ccc(C#Cc2ccc3c(c2)C(C)(C)CCS3)nc1
Potency (µM): 0.0203
remark: inhibitor, full curve, poor fit

compound: COC(=O)C1=C(C)NC(C)=C(C(=O)OC(C)C)[C@H]1c1cccc2nonc12
Potency (µM): 10.95
remark: inhibitor, partial curve

compound: CSc1nc2cc(Oc3cccc(Cl)c3Cl)c(Cl)cc2[nH]1
Potency (µM): 36.13
remark: inhibitor, single point

compound: CN(CCCN1c2ccccc2CCc2ccccc21)CC(=O)c1ccc(Cl)cc1
Potency (µM): 14.38
remark: inhibitor, partial curve

compound: CN1C[C@H](C(=O)N[C@]2(C)O[C@@]3(O)[C@@H]4CCCN4C(=O)[C@H](Cc4ccccc4)N3C2=O)C=C2c3cccc4[nH]cc(c34)C[C@H]21
Potency (µM): 3.612
remark: inhibitor, full curve, poor fit

compound: CC(=O)[C@H]1CC[C@H]2[C@@H]3C=CC4=CC(=O)CC[C@@]4(C)[C@H]3CC[C@]12C
Potency (µM): 17.36
remark: inhibitor, partial curve, poor fit

compound: CN1CC(=O)N2C(Cc3c([nH]c4ccccc34)[C@H]2c2ccc3c(c2)OCO3)C1=O (stereo partly shown)
Potency (µM): 40.53
remark: inhibitor, single point

compound: OCCN1CC(O)C(O)C(O)C1CO (stereo not shown)
Potency (µM): 36.13
remark: inhibitor, single point

compound: CC1OC(C)OC(C)O1 (stereo not shown)
Potency (µM): 2.279
remark: inhibitor, partial curve, poor fit

compound: CCCCCCCCCCCCCCCC(=O)O
Potency (µM): 2.558
remark: inhibitor, partial curve

compound: CN(C)C/C=C(/c1ccc(Br)cc1)c1cccnc1
Potency (µM): 20.31
remark: inhibitor, partial curve

compound: O=C(Oc1ccccc1C(=O)O)c1ccccc1O
Potency (µM): 10.18
remark: inhibitor, partial curve, poor fit

compound: CCc1c2c(nc3ccc(OC(=O)N4CCC(N5CCCCC5)CC4)cc13)-c1cc3c(c(=O)n1C2)COC(=O)[C@]3(O)CC
Potency (µM): 36.13
remark: inhibitor, single point

compound: NS(=O)(=O)c1cc(Cl)c(Cl)c(S(N)(=O)=O)c1
Potency (µM): 17.36
remark: inhibitor, single point

compound: O=C1c2cccc(O)c2C(=O)c2c(O)cccc21
Potency (µM): 40.53
remark: inhibitor, single point

compound: CN(C)CCCN1c2ccccc2CCc2ccc(Cl)cc21
Potency (µM): 36.13
remark: inhibitor, single point

Some entries from above, unchanged:

compound,Potency (µM),remark
COC(=O)C1=C(C)NC(C)=C(C(=O)OC(C)C)[C@H]1c1cccc2nonc12,10.95,"inhibitor, partial curve"
C[C@]12CCC(=O)C(O)=C1CC[C@@H]1[C@H]3CCC(=O)[C@@]3(C)CC[C@@H]12,36.13,"inhibitor, single point"
CN(CCCN1c2ccccc2CCc2ccccc21)CC(=O)c1ccc(Cl)cc1,14.38,"inhibitor, partial curve"
CN(C)CCCN1c2ccccc2CCc2ccc(Cl)cc21,36.13,"inhibitor, single point"